According to the supplement of paper PMC5949888:
Most values lie at the floor of the assay. Slopes are relative: functional sequences can read slightly below zero.

What follows are substances tested on Saccharomyces cerevisiae PS128 hsf1 delta, HSF1(1-493) fusion (assay: growth estimate (transactivation domain function in HSF1 fusion, heat-shock survival) (a.u. (slope of normalised read count over time)); higher = stronger growth at 37°C, i.e. more transactivation activity). Settings: library: random library.

Substance | growth estimate
CGCVCTRDELVIH | < -0.25
RYHWRGGQGI | 0.226
ALDANRLIKPELECSSLG | < -0.25
LGCLQVFIFSGWGV | < -0.25
NCFVGSMIVALAESPPIKTP | < -0.25
GRQRRVDISWMRYVKPVLFF | < -0.25
VIIAR | < -0.25
AKWGVCVCRFKQRKC | < -0.25
GWRFANQSTTRGPECLRFPV | < -0.25
GTPERN | < -0.25
ASLIGGVWARFDGASEDRRR | -0.198
HVPRCWPLYIAMLVHNVGLP | < -0.25
YVFAKYETRNI | < -0.25
WPRGVQYPVNRAYYGNGSHV | < -0.25
VGSEWTLGTKNWVAAPRNSL | < -0.25
RIFTEASIKRWSACFRWWGH | < -0.25
SASRILLHGATGRQEDTTLR | < -0.25
QPSRDPMAHQ | < -0.25
RPSGFVLR | < -0.25
VKAVGFCAFGTLQGEMCARS | < -0.25
LKVG | < -0.25
CPG | < -0.25
AITQSDSRRPKPFRSRPVYR | < -0.25
YRLVLISPS | < -0.25
RIEYKARTTSLGCFTILDFK | < -0.25
LENPA | < -0.25

Substance | growth estimate
PYNMFMIERCNSA | < -0.25
DPTHAWVTSLDPQNDSTG | < -0.25
CGEV | < -0.25
GSVDPQWSTSAGDLLAIIC | < -0.25
MAVNGPSISKSRFFDISRCL | < -0.25
MLCSLARVRDLHGCVECIVH | < -0.25
LLRWSPRI | < -0.25
KSGVGSDWLGILRVPGEQRG | < -0.25
SSSFDLSNLADQMV | < -0.25
IVNKRN | < -0.25
HWGIETRLYRWPGCRGSRAR | < -0.25
NASLVRNALLARLNIGPARY | < -0.25
EQDLLYESLTADLNRHWGID | < -0.25
FPPFIP | < -0.25
LVPLVRGVQAEPRLRCPISN | < -0.25
QLSNLLLPCGTIIPA | < -0.25
GANVSGDTFRLVYPRKC | -0.246
ELLIDIAIPKSLHVGPCIPR | < -0.25
TSVRFYLSAVIDC | < -0.25
LLIGDIRQRLLY | < -0.25
FCHW | -0.238
FTALGARCIGFLRRLVETIE | < -0.25
GDFFLK | < -0.25
APGKGCHFGSPSTERQIDHV | < -0.25
PLGIAIYSQLQCLWYTEARS | < -0.25
PRVLYHSFSSGITVILGTGL | < -0.25

Substance | growth estimate
IPRRWECRSPRELCRMVVGR | < -0.25
FLSRSALRRSALI | < -0.25
VYH | < -0.25
ALGGRWV | -0.228
SLARNFRAPSNSENRDV | < -0.25
TISERAPNQM | < -0.25
ESHALQGTR | < -0.25
KLGLILTTS | < -0.25
RVTHGSRQTGSFVSMSYLVG | < -0.25
RKLILSQRGRKKDSLSPSPN | < -0.25
DIGANTTTEEICTG | < -0.25
RFTLRDSCRVSISDLPRRSA | < -0.25
LLSGYVVASP | < -0.25
LVLRGLNARSF | < -0.25
LIKVGSNANQSATGFSQYYP | < -0.25
GPGHSDWSGLEAPGHMSWTP | < -0.25
VEIEM | < -0.25
EHATKTREEPCIWGCLRHGM | < -0.25
FLCKRGLRPSSLYTSKLYLE | < -0.25
YGVTPLRCFDQARIELAART | < -0.25
PPSSPTVQGREASITCCE | < -0.25
PVWITSPYGIRSGIGGAL | < -0.25
PEWFP | < -0.25
FKDRERKKTQDWGPPLLRRV | < -0.25
RAQVTGNLVLVCIVTAFPCA | < -0.25
VTKEKPMIDSVNLNS | < -0.25

Substance | growth estimate
APRKWYIASILSSPGRVS | < -0.25
TPRAGGSWCTLT | < -0.25
TLGVVVLHARG | < -0.25
HIVHLASPMC | < -0.25
LPG | < -0.25
LILSR | < -0.25
HYWELTRDRSADWGLLPILL | < -0.25
AYYM | < -0.25
PLCVV | < -0.25
WLSFNAVSLKSLEYPTGHKS | < -0.25
GGLTGTIHRTWLAGRTSHVT | < -0.25
SQGPAEWV | < -0.25
VPYKGRPREGCPFAMPSCRS | < -0.25
LVA | < -0.25
GIFC | < -0.25
LLRIDI | < -0.25
GHRLIHPDRDH | < -0.25
PFSAPTGI | < -0.25
PYYYVIRTGSSALALVRPGC | < -0.25
LNYRPARTYWSLSETGVSRV | < -0.25
RTS | < -0.25
LASNPCPTQMGLARVRAIHS | < -0.25
RCTCPGVCLRRVGDSQKGHA | < -0.25
PVKGHGCPDGLGSKLWVYPA | < -0.25
FRNNAIRCSLVP | < -0.25
YGRHYGKALRGGRT | < -0.25

Substance | growth estimate
APEECH | < -0.25
RWLARRTARRVIVRRFRLAW | < -0.25
GLSGVVVSRLRGTPGESVCR | < -0.25
QSH | < -0.25
ADRVLVVTLWDMVD | < -0.25
SLPVTTKEVRTYYPTVTKGG | < -0.25
NQVTQR | -0.246
QASIHAAERCDVGTASGSRL | < -0.25
RSFDSEESRVG | < -0.25
PCASPWLVGVRISIVDHVEH | < -0.25
LKTKGASFGGRGLQEYRLRP | < -0.25
NATGRAWCA | -0.0712
GSNETPSAARGRAAG | < -0.25
RIDAESCVG | < -0.25
TLDVGGSSLNGGFTYIKQRD | < -0.25
IRLGTPCEVCSVERGSQICP | < -0.25
RSVHT | < -0.25
LISVAALRLLARAHLVNSA | < -0.25
NTDSGWTAALR | < -0.25
WCRRIRGARARGAVEI | < -0.25
GEVPQEARRGLCGALAFSHN | < -0.25
IRDGHARQHEWSRFR | < -0.25
GRYIHVRKTR | < -0.25
TMMQHRNWVEFTGWIGGSLH | < -0.25
LQYPSDPWALATGGMNNGQT | 0.037
WPYSG | < -0.25

Substance | growth estimate
RLGHLHIWEPAYCGFDSVAG | < -0.25
RCLGVVSRLQL | < -0.25
SGTR | < -0.25
ILA | < -0.25
PSTPPFARTMFHRNYRD | < -0.25
IYQNEGF | -0.203
RLGEVSVRFGQTSCFRKLVS | < -0.25
LTLHEGSTRGSL | < -0.25
YSGVVKGELTEFFGCTGLTF | 0.0861
DPRAAVLFSHWARKGRIS | < -0.25
NYSVTVVLLIPAIAAAQCRN | < -0.25
PLDAKPTDDDCSIEIGSPGD | < -0.25
SDITYQNH | < -0.25
VARRDTPFVGPKGLTILVPI | < -0.25
LGPTSPT | < -0.25
EVLVLSVGNLAKI | < -0.25
HMECDQVLSRSQ | < -0.25
CEKGPVQLQTHRCEGAS | < -0.25
ANMEVFVAQGAIHEEVVPLG | < -0.25
SWSEDVRIWTSSMYRVSTTT | < -0.25
LSFGVLL | -0.112
PIKFRHPAASRLWIHKSAAS | < -0.25
RGYSTGGAAG | < -0.25
SGNGVLFAVFLSL | < -0.25
FSRMV | < -0.25
EHEFGRSTSYHIPRQAPPER | < -0.25

Substance | growth estimate
SRVKASVTCIRWHYGHVLSA | < -0.25
LLVDAYKWLRILDCRKVLVA | < -0.25
AGHR | < -0.25
GPDIRKGIGEIPSPGASPAP | < -0.25
CLYSR | < -0.25
PGFMVTEPGGSVTWLEAPSL | < -0.25
PGTFNILVCVSRQDAIASPS | < -0.25
LLDKP | < -0.25
IQSLGGSVRQPGSY | < -0.25
LFKN | < -0.25
FGRA | < -0.25
GKKLTSVRTAKRLYFEPMGF | < -0.25
KLSRAETRNSLRGWPGLFRL | < -0.25
WGAHSPCSIKGIRVVAQMVR | < -0.25
VNRGLACSVGPFFETRRLGF | < -0.25
GTGKCSQQVLFLAARGNSGE | < -0.25
SEASGREDA | -0.25
TGARTQLKGLKQLFPFPVTP | -0.239
SPNKTVVTRDQRTRTDLWG | < -0.25
CRRWQA | < -0.25
SRCY | < -0.25
RAGSPGSGFWRRSLVLAMP | < -0.25
GGYYIHQGEWVQEQS | < -0.25
LRHRFTRISV | < -0.25
LGVSCEVTVSRDARVGLEWA | < -0.25
SYGGRVECAYASAREDEASP | < -0.25

Already shown: entries from further up.
Substance | growth estimate
GGLTGTIHRTWLAGRTSHVT | < -0.25
SQGPAEWV | < -0.25
VPYKGRPREGCPFAMPSCRS | < -0.25

More records follow.

Substance | growth estimate
EGERRS | < -0.25
YRW | < -0.25
HCTVKVANYTWVVYLQRLSA | < -0.25
CQLLNKKVGEMHRGPLSQAP | < -0.25
LISPDPIRAAAGPQVGSEVF | < -0.25
PAFPWYSLRLAGFLYAALPS | < -0.25
IDVPISSMESVGLAR | < -0.25
LGSAQST | < -0.25
LRRQIAKCSTISERWGNQRS | < -0.25
WRSVVRGVR | < -0.25
HSEGIGSPGGLEPPDLALLK | < -0.25
PGTMRDRLTCYWSQETSGLS | < -0.25
IVPFGISPVLVDR | < -0.25
DGGARGRGC | < -0.25
NLTWHRIG | < -0.25
RVNCRSES | < -0.25
AQISRGRSGSSDWTTHASIR | < -0.25
PAWGDIGYMGVFPKLGANTG | < -0.25
VNLLRNLSPSS | < -0.25

Reprinted at random: 7 records from the list.
Substance | growth estimate
AQISRGRSGSSDWTTHASIR | < -0.25
PAWGDIGYMGVFPKLGANTG | < -0.25
RVNCRSES | < -0.25
HSEGIGSPGGLEPPDLALLK | < -0.25
PGTMRDRLTCYWSQETSGLS | < -0.25
PAFPWYSLRLAGFLYAALPS | < -0.25
IDVPISSMESVGLAR | < -0.25
